PubChem BioAssay AID504786 | Drosophila RNAi Screening Center – 2011
Assay: 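Knock-downs reducing HIF reporter induction by the iron chelator DFO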 (primary screen). Cell system: Drosophila S2 cells with a stable HIF luciferase reporter. Reagent: long dsRNA against Drosophila genes, about 0.2 µg dsRNA per well of a 384-well plate. Duration: three days of knock-down, then 20 h of DFO before reading. Challenge: desferrioxamine (DFO) at 100 µM, an iron chelator that mimics hypoxia, for 20 h. Detection: 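Firefly luciferase driven by the mouse ldh-a hypoxia-response element, measured after 20 h of 100 µM DFO; z-scores per plate, higher means more signal lost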. Reading the numbers: z-score: higher = stronger loss of HIF reporter signal.
In all, the deposit lists about 21,000 reagents; this is an unselected part of those that have a named target and a result. 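Primary screen; positive scores mean lost reporter signal, so the sign may be inverted from the usual convention.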

| gene | amplicon | z-score, replicate 1 | z-score, replicate 2 |
| --- | --- | --- | --- |
| edl | DRSC06516 | -0.3 | -0.3 |
| CG17839 | DRSC10290 | -0.2 | 0 |
| CG17839 | DRSC10291 | -0.4 | -0.2 |
| opm | DRSC20141 | -0.4 | -1 |
| ATPsynF | DRSC04482 | -0.1 | 0.2 |
| CG33775 | DRSC05353 | -0.2 | -0.2 |
| CG14277 | DRSC02380 | -0.3 | -0.5 |
| CG14252 | DRSC14747 | 0.2 | -0.1 |
| CG1113 | DRSC12163 | -0.1 | -0.3 |
| sNPF-R | DRSC10836 | -0.4 | -0.4 |
| Osi19 | DRSC12569 | -0.3 | 0.8 |
| cg | DRSC07650 | 5.1 | 7.1 |
| Ebp | DRSC04048 | -0.2 | -0.3 |
| wapl | DRSC18851 | -0.2 | -0.9 |
| GluClalpha | DRSC16680 | -1.3 | -1 |
| CG32801 | DRSC17964 | -0.3 | -0.5 |
| Spn28F | DRSC03615 | -0.2 | -0.3 |
| CG10462 | DRSC02058 | -0.5 | -0.1 |
| sesB | DRSC20371 | 1 | -0.2 |
| Strip | DRSC08194 | 2.2 | 1.5 |
| CG3788 | DRSC04418 | -0.3 | -0.4 |
| Fibp | DRSC11031 | -0.3 | -0.2 |

Ordered by “z-score, replicate 2” (ascending): 8 of the entries above.
| gene | amplicon | z-score, replicate 1 | z-score, replicate 2 |
| --- | --- | --- | --- |
| CG14277 | DRSC02380 | -0.3 | -0.5 |
| sNPF-R | DRSC10836 | -0.4 | -0.4 |
| CG1113 | DRSC12163 | -0.1 | -0.3 |
| Ebp | DRSC04048 | -0.2 | -0.3 |
| CG33775 | DRSC05353 | -0.2 | -0.2 |
| CG14252 | DRSC14747 | 0.2 | -0.1 |
| Osi19 | DRSC12569 | -0.3 | 0.8 |
| cg | DRSC07650 | 5.1 | 7.1 |

The results go on:
| gene | amplicon | z-score, replicate 1 | z-score, replicate 2 |
| --- | --- | --- | --- |
| Sap47 | DRSC16850 | -0.2 | -0.2 |
| Ufsp2 | DRSC10231 | -0.3 | -0.6 |
| CG3719 | DRSC18493 | -0.4 | -0.4 |
| Mondo | DRSC02667 | -0.2 | -0.5 |
| Mondo | DRSC02668 | -0.1 | 0.1 |
| CG31337 | DRSC12981 | -0.2 | -0.3 |
| CG10984 | DRSC09817 | -0.1 | -0.4 |
| org-1 | DRSC18810 | -0.4 | -0.9 |
| rig | DRSC06053 | -0.2 | -0.3 |
| rig | DRSC06400 | -0.1 | 0.3 |
| Cpr73D | DRSC11084 | -0.3 | -0.4 |
| fj | DRSC07619 | -0.4 | -0.2 |
| CG13029 | DRSC09909 | -0.3 | -0.3 |
| CG6325 | DRSC16020 | -0.4 | -0.8 |
| cerv | DRSC19681 | -0.1 | 0.2 |
| CG30122 | DRSC06776 | -0.1 | 0 |
| CG30122 | DRSC06935 | 0.1 | -1 |
| CG30495 | DRSC06703 | -0.4 | -0.4 |
| Xpac | DRSC18730 | -0.2 | 0 |
| Mgat4b | DRSC10256 | -0.1 | 0 |
| CG30195 | DRSC04155 | -0.3 | -0.3 |
| CG6834 | DRSC16125 | -0.2 | -0.2 |
| AspRS-m | DRSC02646 | 0.8 | -0.3 |
| sunz | DRSC12559 | -0.2 | -0.1 |
| CG14854 | DRSC14978 | -0.4 | -0.1 |
| BigH1 | DRSC15491 | -0.3 | -0.1 |
| msi | DRSC17003 | 1.9 | 1.1 |
| l(2)34Fc | DRSC01910 | 2.5 | -0.4 |
| retn | DRSC04679 | -0.3 | -0.4 |
| spt4 | DRSC07696 | 0.5 | 0.1 |
| CG3565 | DRSC04389 | -0.3 | -0.5 |
| nolo | DRSC03705 | -0.2 | 0.1 |
| nolo | DRSC03719 | -0.3 | -0.3 |
| nolo | DRSC03720 | -0.3 | -0.1 |
